Results: article PMC4560765

The chains behind the UniProt entries cited, without tags or fusion partners. Residues count along the entry.
UniProt P01135, residues 24-160: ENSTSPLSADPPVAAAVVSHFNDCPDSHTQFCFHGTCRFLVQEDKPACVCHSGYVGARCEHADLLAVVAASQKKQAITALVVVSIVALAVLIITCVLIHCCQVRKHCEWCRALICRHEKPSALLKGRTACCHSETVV

Biological target: T1, RHBDD1 with FLAG and SBP epitopes knocked in at the COOH terminus (endogenous locus, HCT116) (human (endogenous in HCT116)) (UniProt Q8TEB9)
T1 sequence: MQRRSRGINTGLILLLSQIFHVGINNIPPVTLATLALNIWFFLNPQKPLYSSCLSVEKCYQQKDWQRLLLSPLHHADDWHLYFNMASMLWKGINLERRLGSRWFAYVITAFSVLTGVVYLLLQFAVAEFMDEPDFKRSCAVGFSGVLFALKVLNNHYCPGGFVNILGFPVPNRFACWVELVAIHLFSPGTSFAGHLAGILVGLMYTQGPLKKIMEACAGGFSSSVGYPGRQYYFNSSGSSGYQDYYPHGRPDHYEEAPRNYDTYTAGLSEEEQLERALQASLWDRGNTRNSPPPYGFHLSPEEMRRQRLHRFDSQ
Experiment: affinity purification with mass spectrometry; targeted knock-in HCT116 cells lysed in 50 mM Tris-HCl pH 7.4, 100 mM NaCl, 0.5% NP-40, 1 mM EDTA; anti-FLAG M2 affinity gel; SDS-PAGE, silver stain, differential bands analysed by LC-MS/MS

binding: binds
Substance: endogenous proTGFα (from UniProt P01135 24-160) (ligand)

Results are given in words; binding and its absence hold for the method and conditions named. In cells and extracts the contact can be indirect. Here binding means that the protein was enriched with, or labelled near, the bait; the list need not be complete. Sequences can lack the tags named with a protein.
